Results are given in words; binding and its absence hold for the method and conditions named. In cells and extracts the contact can be indirect. These calls come from enrichment with a bait or labelling near it, and not all partners need be listed.

The chains behind the UniProt entries cited, without tags or fusion partners.
UniProt Q9H3M7: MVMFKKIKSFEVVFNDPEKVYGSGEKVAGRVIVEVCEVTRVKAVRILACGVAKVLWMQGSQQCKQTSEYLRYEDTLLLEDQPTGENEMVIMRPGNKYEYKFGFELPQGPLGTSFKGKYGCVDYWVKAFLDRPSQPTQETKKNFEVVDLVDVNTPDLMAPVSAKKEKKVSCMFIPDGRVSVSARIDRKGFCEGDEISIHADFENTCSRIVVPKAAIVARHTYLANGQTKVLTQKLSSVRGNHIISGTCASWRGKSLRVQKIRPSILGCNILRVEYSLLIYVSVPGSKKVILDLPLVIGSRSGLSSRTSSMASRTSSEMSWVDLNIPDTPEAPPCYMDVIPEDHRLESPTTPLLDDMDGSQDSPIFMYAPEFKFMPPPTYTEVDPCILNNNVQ
UniProt P46934: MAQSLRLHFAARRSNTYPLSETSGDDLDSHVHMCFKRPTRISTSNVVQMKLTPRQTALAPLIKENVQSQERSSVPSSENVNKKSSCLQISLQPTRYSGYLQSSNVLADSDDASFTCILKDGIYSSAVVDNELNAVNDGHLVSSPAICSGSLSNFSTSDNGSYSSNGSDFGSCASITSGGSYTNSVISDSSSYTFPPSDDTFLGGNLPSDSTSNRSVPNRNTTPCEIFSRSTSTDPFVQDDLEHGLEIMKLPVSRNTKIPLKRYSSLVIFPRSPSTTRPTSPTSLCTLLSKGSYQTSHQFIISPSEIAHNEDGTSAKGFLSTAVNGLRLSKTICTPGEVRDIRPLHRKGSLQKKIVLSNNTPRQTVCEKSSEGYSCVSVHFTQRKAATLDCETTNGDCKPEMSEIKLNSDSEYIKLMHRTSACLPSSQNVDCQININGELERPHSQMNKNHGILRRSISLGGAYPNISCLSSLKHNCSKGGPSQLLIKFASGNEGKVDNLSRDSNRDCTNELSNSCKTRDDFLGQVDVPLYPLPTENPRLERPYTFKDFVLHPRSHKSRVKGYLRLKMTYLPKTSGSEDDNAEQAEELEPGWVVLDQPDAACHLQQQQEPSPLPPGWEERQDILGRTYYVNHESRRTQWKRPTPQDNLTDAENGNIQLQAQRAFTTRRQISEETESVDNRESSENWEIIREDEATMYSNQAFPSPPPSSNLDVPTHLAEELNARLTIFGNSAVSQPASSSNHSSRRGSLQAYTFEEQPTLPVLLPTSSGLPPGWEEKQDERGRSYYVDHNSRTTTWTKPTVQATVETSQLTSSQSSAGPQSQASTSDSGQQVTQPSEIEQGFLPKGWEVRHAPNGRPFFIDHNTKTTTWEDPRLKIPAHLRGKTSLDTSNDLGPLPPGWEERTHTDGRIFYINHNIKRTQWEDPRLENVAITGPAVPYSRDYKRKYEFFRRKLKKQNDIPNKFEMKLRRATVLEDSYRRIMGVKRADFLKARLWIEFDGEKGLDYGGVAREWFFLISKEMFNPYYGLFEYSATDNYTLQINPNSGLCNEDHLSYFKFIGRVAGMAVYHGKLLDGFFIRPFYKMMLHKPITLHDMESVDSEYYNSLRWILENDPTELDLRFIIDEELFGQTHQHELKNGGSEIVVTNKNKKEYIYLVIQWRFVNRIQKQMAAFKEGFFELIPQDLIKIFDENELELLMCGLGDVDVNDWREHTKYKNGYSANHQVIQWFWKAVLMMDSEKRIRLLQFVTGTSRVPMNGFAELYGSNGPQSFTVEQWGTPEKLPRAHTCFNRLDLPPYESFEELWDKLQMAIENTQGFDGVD
UniProt Q9P2P5: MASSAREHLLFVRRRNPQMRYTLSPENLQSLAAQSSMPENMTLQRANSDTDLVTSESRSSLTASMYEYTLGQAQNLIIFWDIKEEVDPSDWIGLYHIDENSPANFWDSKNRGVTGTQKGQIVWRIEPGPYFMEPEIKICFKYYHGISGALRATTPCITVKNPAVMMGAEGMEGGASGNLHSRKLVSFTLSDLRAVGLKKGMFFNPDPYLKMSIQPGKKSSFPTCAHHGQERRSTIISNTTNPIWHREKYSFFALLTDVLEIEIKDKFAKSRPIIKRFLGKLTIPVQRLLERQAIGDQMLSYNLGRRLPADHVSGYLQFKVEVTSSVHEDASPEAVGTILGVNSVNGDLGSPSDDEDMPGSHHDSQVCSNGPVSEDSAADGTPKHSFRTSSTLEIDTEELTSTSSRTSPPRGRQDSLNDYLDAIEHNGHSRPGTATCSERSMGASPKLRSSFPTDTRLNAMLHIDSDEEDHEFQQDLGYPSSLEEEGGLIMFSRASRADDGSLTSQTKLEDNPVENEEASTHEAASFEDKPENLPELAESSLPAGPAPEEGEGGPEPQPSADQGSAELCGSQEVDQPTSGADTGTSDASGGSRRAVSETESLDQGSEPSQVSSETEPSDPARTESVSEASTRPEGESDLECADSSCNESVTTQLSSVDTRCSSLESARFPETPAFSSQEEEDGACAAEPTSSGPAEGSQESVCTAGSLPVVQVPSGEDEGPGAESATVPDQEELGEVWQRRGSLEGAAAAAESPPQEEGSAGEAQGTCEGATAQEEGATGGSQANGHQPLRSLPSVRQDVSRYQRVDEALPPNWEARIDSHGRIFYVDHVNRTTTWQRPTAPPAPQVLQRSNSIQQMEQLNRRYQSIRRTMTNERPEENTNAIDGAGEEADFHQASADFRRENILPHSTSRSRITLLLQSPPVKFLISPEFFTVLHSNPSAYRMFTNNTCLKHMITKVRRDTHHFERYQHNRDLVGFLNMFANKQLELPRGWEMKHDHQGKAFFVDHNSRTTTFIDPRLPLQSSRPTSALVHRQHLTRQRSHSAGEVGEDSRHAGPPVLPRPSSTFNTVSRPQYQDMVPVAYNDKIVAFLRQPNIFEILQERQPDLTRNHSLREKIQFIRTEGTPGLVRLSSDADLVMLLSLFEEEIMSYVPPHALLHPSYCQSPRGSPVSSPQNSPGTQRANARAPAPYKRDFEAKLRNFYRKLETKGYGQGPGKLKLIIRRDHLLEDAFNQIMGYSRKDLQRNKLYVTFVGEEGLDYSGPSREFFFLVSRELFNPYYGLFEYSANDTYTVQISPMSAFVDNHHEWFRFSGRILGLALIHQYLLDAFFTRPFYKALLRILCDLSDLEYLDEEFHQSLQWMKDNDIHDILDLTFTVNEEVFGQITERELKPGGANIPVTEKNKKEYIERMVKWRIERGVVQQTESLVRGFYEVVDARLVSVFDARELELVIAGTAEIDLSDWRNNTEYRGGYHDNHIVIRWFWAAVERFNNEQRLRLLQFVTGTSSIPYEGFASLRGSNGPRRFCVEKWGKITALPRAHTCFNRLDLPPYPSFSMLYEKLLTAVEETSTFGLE
UniProt Q76N89: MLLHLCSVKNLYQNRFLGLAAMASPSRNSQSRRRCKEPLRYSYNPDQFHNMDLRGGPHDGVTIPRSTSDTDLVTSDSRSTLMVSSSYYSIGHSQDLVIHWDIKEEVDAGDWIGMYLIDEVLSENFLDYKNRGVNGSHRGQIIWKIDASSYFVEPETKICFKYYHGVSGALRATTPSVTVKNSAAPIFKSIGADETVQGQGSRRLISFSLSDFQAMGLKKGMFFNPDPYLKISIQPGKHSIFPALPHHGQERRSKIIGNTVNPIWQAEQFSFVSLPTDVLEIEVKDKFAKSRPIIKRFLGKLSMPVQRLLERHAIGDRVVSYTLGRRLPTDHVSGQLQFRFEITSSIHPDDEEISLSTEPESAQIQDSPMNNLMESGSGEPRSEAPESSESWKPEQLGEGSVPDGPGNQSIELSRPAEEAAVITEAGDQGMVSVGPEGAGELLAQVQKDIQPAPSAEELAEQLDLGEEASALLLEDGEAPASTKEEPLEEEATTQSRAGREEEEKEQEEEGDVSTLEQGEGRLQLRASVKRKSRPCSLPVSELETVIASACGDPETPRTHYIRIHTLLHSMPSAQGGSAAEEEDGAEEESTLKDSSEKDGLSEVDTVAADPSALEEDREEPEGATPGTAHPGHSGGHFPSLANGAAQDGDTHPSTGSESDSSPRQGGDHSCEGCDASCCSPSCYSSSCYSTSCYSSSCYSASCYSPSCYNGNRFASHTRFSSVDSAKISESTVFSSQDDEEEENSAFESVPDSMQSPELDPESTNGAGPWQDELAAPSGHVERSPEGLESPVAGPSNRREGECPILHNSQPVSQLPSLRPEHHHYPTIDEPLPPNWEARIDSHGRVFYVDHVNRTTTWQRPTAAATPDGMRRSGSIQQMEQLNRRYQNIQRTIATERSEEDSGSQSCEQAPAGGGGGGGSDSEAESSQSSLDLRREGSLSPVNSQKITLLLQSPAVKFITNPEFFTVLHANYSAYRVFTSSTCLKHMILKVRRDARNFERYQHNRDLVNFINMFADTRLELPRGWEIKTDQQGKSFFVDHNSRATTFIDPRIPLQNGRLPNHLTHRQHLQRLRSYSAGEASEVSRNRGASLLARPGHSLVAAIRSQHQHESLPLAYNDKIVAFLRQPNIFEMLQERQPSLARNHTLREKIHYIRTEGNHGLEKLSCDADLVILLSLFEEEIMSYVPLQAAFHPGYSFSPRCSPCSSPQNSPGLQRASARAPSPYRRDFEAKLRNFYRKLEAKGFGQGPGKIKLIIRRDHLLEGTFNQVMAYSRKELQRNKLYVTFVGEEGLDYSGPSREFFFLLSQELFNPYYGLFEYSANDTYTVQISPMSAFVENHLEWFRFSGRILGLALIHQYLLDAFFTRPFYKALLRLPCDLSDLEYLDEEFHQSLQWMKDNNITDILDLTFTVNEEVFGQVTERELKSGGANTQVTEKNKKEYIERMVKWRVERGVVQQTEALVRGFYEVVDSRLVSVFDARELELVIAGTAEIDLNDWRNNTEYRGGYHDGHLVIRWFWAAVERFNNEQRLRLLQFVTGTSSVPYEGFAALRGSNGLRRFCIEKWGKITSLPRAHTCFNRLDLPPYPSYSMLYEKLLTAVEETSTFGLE

Our source for the binding values is article PMC12669767.

In the assay the target is ALFA-tagged TXNIP (thioredoxin interacting protein), expressed in HEK293T (human) (UniProt Q9H3M7). In words: affinity purification with mass spectrometry; label-free interactome: ALFA-TXNIP or its PPxY mutants precipitated from transfected HEK293T lysate on ALFA Selector ST magnetic beads, 3 h at 4 °C; 30 mM Tris pH 7.5, 150 mM NaCl, 0.5% octyl-glucopyranoside; abundances normalised to empty beads; n = 3.
With “NEDD4, endogenous in HEK293T (from UniProt P46934 1-1319) (enzyme)”, the binding entry is recorded as “binds”.
On to “HECW2, endogenous in HEK293T (from UniProt Q9P2P5 1-1572) (enzyme)”, for which the binding result is on record as “binds”.
For “HECW1, endogenous in HEK293T (from UniProt Q76N89 1-1606) (enzyme)”, the binding entry is “binds”.
